The text below walks through data of paper PMC2567969.

Assay [1] addresses GFP::Ik2 expressed in the fly germline (Drosophila). The assay is described as follows: co-IP; ovarian extract of transgenic flies expressing GFP-Ik2 and HA-Spn-F in the germline; lysis with 1% NP-40; IP with anti-GFP and protein A-coated beads; western blot with anti-HA; control ovaries expressing HA-Spn-F alone.
The next assay addresses Sec13-MBP. The assay is described as follows: SPR; ProteOn XPR36, GLC chip; Ik2-MBPHis (1400 RU) and Sec13-MBP (5500 RU) amine-coupled; Spn-F injected at six concentrations 0.1625 to 5 μM; PBS pH 7.4, 0.005% Tween 20, 25°C; global fit to 1:1 Langmuir model; both purified. (In general: Surface plasmon resonance follows binding to a sensor surface in real time, without labels.)

For assay [2], the target named is Kinase dead Ik2, Ik2 [K41A]-Myc (Drosophila). The assay is described as follows: co-IP; S2 cells co-transfected; lysis in PBS, 1% Triton X-100, protease inhibitors; IP overnight at 4°C with anti-GFP or anti-myc and protein A-coated beads; western blot with anti-HA or anti-myc; control beads without antibody. (In general: A western blot detects proteins with antibodies after separation by electrophoresis.)

Results are given in words; binding and its absence hold for the method and conditions named. For part of these data: Binding seen in cells or lysates may run through a third protein. For part of these data: A result given as binding can be weak or reduced; the word gives no strength. Tags and fused reporters may be left off the sequences shown.

B1: HA::Spn-F expressed in the fly germline (protein, UniProt Q9V9Y9 1-364)
chain: MEASAAKITPMASSMSASGSTNSPSSEKMNYALQVALQTIKERCIQLQRRVASMEEENQQLREASSRSEGAPRANEIGVTGDVLSLKAQVSELQRQKEQLEEHIGMVSNENRRLWSRLSQISKDQQLNALPSSTDSRAQQNQNLVRSKTFTQHSPNPHLRQKMLSDGIKDLSLEEIALDDFGASSEELGYPYNLQKVEETTSEPDANVDAKRCLDGLQELRREAMKQQQELRSVMTLLENRIALKPCPECAQKTIKKPEMADKSLETDDSLTSELKNYESQHNGHNGTPPSQRINIIQEKIKADAADAMEKTCPMCGKQYSSQVSFNAFREHVEMHFIDDALELESENSIERQFEFVSHAVGDF
Take B1: the binding entry in assay [1] is given as “binds”.

B2: Spn-F, recombinant, MBP-His6 tag cleaved (protein, UniProt Q9V9Y9 1-364)
chain: MEASAAKITPMASSMSASGSTNSPSSEKMNYALQVALQTIKERCIQLQRRVASMEEENQQLREASSRSEGAPRANEIGVTGDVLSLKAQVSELQRQKEQLEEHIGMVSNENRRLWSRLSQISKDQQLNALPSSTDSRAQQNQNLVRSKTFTQHSPNPHLRQKMLSDGIKDLSLEEIALDDFGASSEELGYPYNLQKVEETTSEPDANVDAKRCLDGLQELRREAMKQQQELRSVMTLLENRIALKPCPECAQKTIKKPEMADKSLETDDSLTSELKNYESQHNGHNGTPPSQRINIIQEKIKADAADAMEKTCPMCGKQYSSQVSFNAFREHVEMHFIDDALELESENSIERQFEFVSHAVGDF
For the molecule B2, in the assay with Sec13-MBP, the binding entry was “no binding (tested: 5 μM)”.

B3: HA-tagged Spindle-F (Spn-F), expressed in S2 cells (protein, UniProt Q9V9Y9 1-364)
chain: MEASAAKITPMASSMSASGSTNSPSSEKMNYALQVALQTIKERCIQLQRRVASMEEENQQLREASSRSEGAPRANEIGVTGDVLSLKAQVSELQRQKEQLEEHIGMVSNENRRLWSRLSQISKDQQLNALPSSTDSRAQQNQNLVRSKTFTQHSPNPHLRQKMLSDGIKDLSLEEIALDDFGASSEELGYPYNLQKVEETTSEPDANVDAKRCLDGLQELRREAMKQQQELRSVMTLLENRIALKPCPECAQKTIKKPEMADKSLETDDSLTSELKNYESQHNGHNGTPPSQRINIIQEKIKADAADAMEKTCPMCGKQYSSQVSFNAFREHVEMHFIDDALELESENSIERQFEFVSHAVGDF
B3: the binding entry in assay [2] was “binds”.
